PubChem BioAssay AID540256 (National Center for Advancing Translational Sciences (NCATS), 2011)
The whole screen tested about 300,000 compounds, of which about 3,700 (1.2%) were called active. Inconclusive means that the source gave no clear call. Such entries were picked first, then a sample of the others. Calls follow the shape of the full dose curve; tested in HEK293 cells. Where the call is inconclusive, the potency comes from a doubtful curve fit.

Assay: qHTS for Inhibitors of binding or entry into cells for Lassa Virus; also: nearly all actives have a fitted effect of over 50% in size
Conditions: Lassa virus pseudotype entry inhibition, cell reporter; series mostly up to 37.9 µM
Potency is read from the fitted curve at half-maximal effect.

| SMILES | Potency |
| --- | --- |
| Cc1ccc2nc(-c3ccc(NC(=O)COC(=O)c4ccc([N+](=O)[O-])o4)cc3)sc2c1 | active: 7.08 µM |
| CN(c1ccc(OCC(=O)Nc2ccc(S(N)(=O)=O)cc2)cc1)S(=O)(=O)c1ccc(F)cc1 | inactive |
| CC(=O)Nc1ccc(Nc2nc(-c3ccccc3)nc3ccccc23)cc1 | inconclusive: 35.5 µM [inhibitor, single point] |
| O=C(NC(=S)Nc1ccccc1N1CCCCC1)c1ccc(F)cc1 | inconclusive: 10 µM [inhibitor, partial curve] |
| COCC1CCN(C(=O)c2ccc(OC3CCN(Cc4ccccn4)CC3)cc2)C1 (stereo not drawn) | inconclusive: 1 µM [activator, single point] |
| Cc1ccc(-c2cccc(NC(=O)C3C(C(=O)O)[C@@H]4C=C[C@H]3C4)c2)o1 (stereo partly drawn) | inactive |
| CCOc1ccc(N2CC(C(=O)Nc3ccncc3)CC2=O)cc1 (stereo not drawn) | inconclusive: 1.26 µM [activator, single point] |
| CC(=O)c1cccc(NC(=O)Cn2c(=O)c(CNc3ccc(C)cc3)cc3cc4c(cc32)OCCO4)c1 | inactive |
| COc1ccccc1C(=O)Nc1ccc2nc(N3CCC(C)CC3)cc(C)c2c1 | inconclusive: 22.4 µM [inhibitor, single point] |
| CCOc1ccccc1NS(=O)(=O)c1c(C)nc2sccn2c1=O | inactive |
| c1ccc2c(c1)OCCc1c-2[nH]c2ccccc12 | inconclusive: 17.8 µM [inhibitor, partial curve, poor fit] |
| CN(C(=O)Cc1ccccc1)n1cnnc1 | inactive |
| COc1ccc(C(=O)COC(=O)CCC(=O)Nc2ccc(C(C)=O)cc2)cc1 | inactive |
| Cc1ccc(-c2csc(NC(=S)NC(=O)c3cccs3)n2)cc1 | inactive |
| CCOCCCN(Cc1cc2cc(C)cc(C)c2[nH]c1=O)C(=O)N(CC)CC | inconclusive: 29.1 µM [inhibitor, partial curve, poor fit] |
| CC(C)CC(NS(=O)(=O)c1cccc(C(=O)O)c1)C(=O)O (stereo not drawn) | inconclusive: 1 µM [inhibitor, single point] |
| CC1CCCN(c2ccc(C(=O)NCc3ccco3)cc2[N+](=O)[O-])C1 (stereo not drawn) | inconclusive: 2.82 µM [inhibitor, partial curve] |
| O=C(NCC(c1cccs1)N1CCOCC1)c1ccccc1NS(=O)(=O)c1cccc([N+](=O)[O-])c1 (stereo not drawn) | inconclusive: 11.2 µM [inhibitor, single point] |
| CCOC(=O)c1ccc(-n2c(C)nc3ccc(Br)cc3c2=O)cc1 | inconclusive: 3.55 µM [inhibitor, single point] |
| CC(=O)N1CCN(S(=O)(=O)c2cccc(C(=O)NNC(=O)COc3ccc(F)cc3)c2)CC1 | inconclusive: 1 µM [inhibitor, single point] |
| CS(=O)(=O)c1ccc(C(=O)Nc2ccc(N3CCCC3)cc2)c(Cl)c1 | inconclusive: 3.16 µM [inhibitor, single point] |
| O=C1CS(=O)(=O)c2ccccc2N1 | inconclusive: 28.2 µM [activator, single point] |
| CCOC(=O)C1(Cc2cccc(OC)c2)CCN(Cc2cccc3c2OCO3)CC1 | inconclusive: 12.6 µM [inhibitor, partial curve, poor fit] |

| SMILES | Potency |
| --- | --- |
| COc1ccc(N/N=C(/C(N)=O)C2=NC(C)(C)Cc3ccccc32)cc1 | inconclusive: 8.91 µM [inhibitor, partial curve, poor fit] |
| COCCNC(=O)COC(=O)c1cc(-c2ccc(OC)cc2)nc2ccccc12 | inconclusive: 3.16 µM [inhibitor, single point] |
| CNC(=S)N(CCc1c(C)[nH]c2ccc(Cl)cc12)Cc1cc(OC)c(OC)c(OC)c1 | inconclusive: 29.1 µM [inhibitor, single point] |
| O=C(c1ccc(F)cc1)C(CN1CCOCC1)c1ccccc1 (stereo not drawn) | inconclusive: 3.16 µM [inhibitor, partial curve, poor fit] |
| Cn1c(C(=O)O)c(CC(=O)N2CCN(Cc3ccccc3)CC2)c2ccccc21 | inactive |
| O=C(CSc1nnc2ccc(-c3ccccn3)nn12)NCCc1ccccc1 | inconclusive: 1.26 µM [inhibitor, single point] |
| CSc1ccc(C2c3[nH]c4ccccc4c3CCN2C(=O)CCc2ccccc2)cc1 (stereo not drawn) | active: 2.51 µM |
| COc1ccc(-c2cn3cccnc3n2)cc1NC(=O)c1c(F)cccc1F | inconclusive: 3.16 µM [inhibitor, single point] |
| COc1ccccc1NNC(=O)c1cccnc1Oc1ccccc1 | inconclusive: 12.6 µM [inhibitor, partial curve, poor fit] |
| Cc1ccc(N(C(=O)c2ccco2)C2C=CS(=O)(=O)C2)cc1 (stereo not drawn) | inconclusive: 7.08 µM [inhibitor, partial curve, poor fit] |
| CCOc1ccc2nc(NC(=O)CSc3cn[nH]n3)sc2c1 | inconclusive: 0.794 µM [inhibitor, single point] |
| Cc1ccc(-c2nc(C3CCCN(S(=O)(=O)c4ccc(C(F)(F)F)cc4)C3)no2)cc1 (stereo not drawn) | inconclusive: 0.562 µM [activator, partial curve, poor fit] |
| CCCOc1ccccc1N/C(=N\S(=O)(=O)c1ccc(C)cc1)Nc1nc(C)cc(C)n1 | inconclusive: 6.31 µM [inhibitor, single point] |
| COc1cccc(OC)c1C(=O)Nc1cc(C)on1 | inactive |
| COc1cc(NC(=O)CSc2nccc(C)n2)c(C(=O)O)cc1OC | inconclusive: 8.2 µM [activator, partial curve, poor fit] |
| COc1cc(C(=O)Nc2ccc3c(c2)Cc2cc(NC(=O)c4cc(OC)c(OC)c(OC)c4)ccc2-3)cc(OC)c1OC | inconclusive: 0.891 µM [inhibitor, partial curve, poor fit] |
| COCc1ccc(C(=O)N2CCCC(Nc3ccc4c(c3)OCCO4)C2)o1 (stereo not drawn) | inconclusive: 3.55 µM [activator, single point] |
| Cc1cc(C)c2c(=O)n(-c3ccccc3)[nH]c2n1 | inactive |
| CCOC(=O)c1c(N)n(-c2ccccc2CC)c2nc3ccccc3nc12 | inactive |
| CCCN(CC(=O)Nc1ccccc1OC)C(=O)CCNC(=O)c1ccccc1OC | inconclusive: 1.26 µM [inhibitor, single point] |
| Cc1cc(NS(=O)(=O)c2ccc3nc(-c4ccccc4)[nH]c3c2)ccc1Br | inactive |
| O=C(CCc1ccccc1)NCCCN1CCOCC1 | inconclusive: 32.6 µM [activator, partial curve, poor fit] |
| CN(C)c1ccc(C=C2C=Cc3ccccc32)cc1 | active: 6.31 µM |

A draw from above in order of molar mass, low to high.

| SMILES | Potency |
| --- | --- |
| Cc1ccc(-c2csc(NC(=S)NC(=O)c3cccs3)n2)cc1 | inactive |
| Cc1cc(NS(=O)(=O)c2ccc3nc(-c4ccccc4)[nH]c3c2)ccc1Br | inactive |
| CN(c1ccc(OCC(=O)Nc2ccc(S(N)(=O)=O)cc2)cc1)S(=O)(=O)c1ccc(F)cc1 | inactive |

(list continues)

| SMILES | Potency |
| --- | --- |
| Cc1cccc(C)c1N1CCN(C(=O)Nc2ccc3c(c2)OCCO3)CC1 | inconclusive: 4.11 µM [activator, single point] |
| CCOc1ccc(CNC(=O)CCC(=O)N2CC3CCCN3c3ccccc32)cc1 (stereo not drawn) | inactive |
| CCc1nc2cccnc2n1-c1ccc(CC(=O)Nc2ccccc2Cl)cc1 | inactive |
| CC(=C/c1ccccc1)/C=N/NC(=O)c1nnn(-c2nonc2N)c1CN1CCC(C)CC1 | inactive |
| CC1CCCN(CCCOc2ccccc2-c2ccccc2)C1 (stereo not drawn) | inconclusive: 15.8 µM [inhibitor, single point] |
| CC1CCc2onc(C(=O)N3CCN(c4ccccc4)CC3)c2C1 (stereo not drawn) | inactive |
| Cc1nc(CNC(=O)c2cc(COc3ccc(F)cc3Cl)on2)cs1 | inconclusive: 20 µM [inhibitor, partial curve, poor fit] |
| COc1ccc(-c2nc3c(c(SCC(=O)Nc4cccc(O)c4)n2)Cc2c(CO)cnc(C)c2O3)cc1 | inconclusive: 35.5 µM [inhibitor, single point] |
| C[C@]12CC[C@H](O)CC1=CCC1C2CC[C@@]2(C)C1CC[C@@H]2NC(=O)[C@@H](N)Cc1ccccc1 (stereo partly drawn) | inconclusive: 1.41 µM [inhibitor, partial curve, poor fit] |
| O=C(NCc1ccc(Cl)cc1)c1cc2c(s1)-c1ccccc1SC2 | inactive |
| CC1Cc2ccccc2N1C(=O)CN1C(=O)CN(C)C(=O)c2ccccc21 (stereo not drawn) | inconclusive: 20 µM [inhibitor, partial curve, poor fit] |
| CC(=O)c1cnn(-c2cc(Oc3cccc(C)c3)ncn2)c1C | inconclusive: 0.251 µM [inhibitor, full curve, poor fit] |
| Cc1ccc(CN2COc3ccc4c(C)cc(=O)oc4c3C2)cc1 | inactive |
| Cc1cc(-c2ccccc2)n(-c2cc(N/N=C/c3ccccc3O)ncn2)n1 | active: 4.47 µM |
| CC(C)C(=O)Nc1nnc(CCc2nnc(NC(=O)C(C)C)s2)s1 | inconclusive: 35.5 µM [activator, single point] |
| COc1cc(C=NNC(=O)c2ccccc2-n2cccc2)ccc1O | inactive |
| Cc1cccc(C)c1NC(=S)N1CCC(N(C)CC2CCCO2)CC1 (stereo not drawn) | inactive |
| CC(C)=Cc1cccc2[nH]c(O)c(N=Nc3ccc(S(N)(=O)=O)cc3)c12 | active: 3.97 µM |
| C=CCn1c(O)c(C(CC)=NCc2cc(OC)cc(OC)c2)c(=O)[nH]c1=O | active: 5.8 µM |
| O=C(NCc1ccc2c(c1)OCO2)c1ccc2c(c1)N(Cc1c(F)cccc1Cl)C(=O)CS2 | inconclusive: 3.98 µM [inhibitor, full curve, poor fit] |
| COc1cc(C2C(C#N)=C(N)Oc3n[nH]c(-c4cccnc4)c32)cc(Br)c1O (stereo not drawn) | inconclusive: 23.1 µM [inhibitor, single point] |
| O=C(N(c1ccccn1)c1ccccn1)C12CC3CC(CC(C3)C1)C2 | inconclusive: 35.5 µM [inhibitor, single point] |
